Source: the supplement of paper PMC4604168 (melanoma cell lines)
Some of the results follow. Repeats are few or missing, and single values can be far off.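 Imaging used 1,536-well plates; nuclei positive for cleaved PARP by antibody were divided by total DNA-stained nuclei to yield the apoptosis fraction. Doses for screening kept most cells viable, and cell lines differ markedly in resting and induced cleaved-PARP levels.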

Columns and labels:
Assay in all cases: cleaved PARP positive nuclei fraction relative to DMSO control; melanoma cells; higher = more apoptosis
Conditions in all cases: library dose: low library concentration; 72 h
501Mel = tested on: 501Mel
A101D = tested on: A101D
A2058 = tested on: A2058
A375 = tested on: A375
C32 = tested on: C32
CBRC008 = tested on: CBRC008 (line from a melanoma biopsy)
CBRC013 = tested on: CBRC013 (line from a melanoma biopsy)
CBRC014 = tested on: CBRC014 (line from a melanoma biopsy)
CBRC016 = tested on: CBRC016 (line from a melanoma biopsy)
CBRC017 = tested on: CBRC017 (line from a melanoma biopsy)
COLO792 = tested on: COLO792
COLO800 = tested on: COLO800
COLO829 = tested on: COLO829
G361 = tested on: G361
IPC-298 = tested on: IPC-298
IST-MEL1 = tested on: IST-MEL1
LB2518-MEL = tested on: LB2518-MEL
LOXIMVI = tested on: LOXIMVI
MEL-HO = tested on: MEL-HO

| Structure (SMILES) | cleaved PARP positive nuclei fraction (501Mel) [%] | cleaved PARP positive nuclei fraction (A101D) [%] | cleaved PARP positive nuclei fraction (A2058) [%] | cleaved PARP positive nuclei fraction (A375) [%] | cleaved PARP positive nuclei fraction (C32) [%] | cleaved PARP positive nuclei fraction (CBRC008) [%] | cleaved PARP positive nuclei fraction (CBRC013) [%] | cleaved PARP positive nuclei fraction (CBRC014) [%] | cleaved PARP positive nuclei fraction (CBRC016) [%] | cleaved PARP positive nuclei fraction (CBRC017) [%] | cleaved PARP positive nuclei fraction (COLO792) [%] | cleaved PARP positive nuclei fraction (COLO800) [%] | cleaved PARP positive nuclei fraction (COLO829) [%] | cleaved PARP positive nuclei fraction (G361) [%] | cleaved PARP positive nuclei fraction (IPC-298) [%] | cleaved PARP positive nuclei fraction (IST-MEL1) [%] | cleaved PARP positive nuclei fraction (LB2518-MEL) [%] | cleaved PARP positive nuclei fraction (LOXIMVI) [%] | cleaved PARP positive nuclei fraction (MEL-HO) [%] |
| --- | --- | --- | --- | --- | --- | --- | --- | --- | --- | --- | --- | --- | --- | --- | --- | --- | --- | --- | --- |
| Nc1ccn([C@@H]2O[C@H](CO)[C@@H](O)C2(F)F)c(=O)n1 [gemcitabine] + COc1cc(Nc2ncc(F)c(Nc3ccc4c(n3)NC(=O)C(C)(C)O4)n2)cc(OC)c1OC [Tamatinib] (first compound 0.0004 µM, partner dose 0.4 µM) | 82.8 | 136 | 54.7 | 406 | 142 | 366 | 119 | 125 | 61.5 | 105 | 176 | 116 | 106 | 112 | 323 | 45.9 | 56.3 | 230 | 84.5 |
| Cc1cc(Nc2cc(N3CCN(C)CC3)nc(/C=C/c3ccccc3)n2)n[nH]1 + O=C(O)c1ccc(-c2c[nH]c3ncc(-c4ccccc4)cc23)cc1C1CCCC1 [GSK650394] (first compound 0.04 µM, partner dose 0.16 µM) | 74.5 | 160 | 112 | 83.1 | 84.5 | 39.4 | 86.5 | 84.7 | 82.4 | 123 | 64.5 | 140 | 154 | 108 | 62.4 | 173 | 88.6 | 54.9 | 45.1 |
| CC(C)C[C@H](NC(=O)[C@H](Cc1ccccc1)NC(=O)c1cnccn1)B(O)O [Bortezomib] + CN(C)S(=O)(=O)c1ccc2c(c1)/C(=C/c1cc3c([nH]1)CCCC3)C(=O)N2 [SU6656] (first compound 0.001 µM, partner dose 0.4 µM) | 169 | 229 | 115 | 31.5 | 148 | 535 | 97.7 | 157 | 366 | 226 | 48.2 | 105 | 220 | 2620 | 53.2 | 163 | 94.3 | 108 | 63.3 |
| O=C(O)c1ccc2c(c1)nc(Nc1cccc(Cl)c1)c1ccncc12 + O=C(O)c1ccc(-c2c[nH]c3ncc(-c4ccccc4)cc23)cc1C1CCCC1 [GSK650394] (first compound 0.4 µM, partner dose 0.16 µM) | 115 | 43.1 | 169 | 133 | 91.7 | 283 | 138 | 129 | 140 | 215 | 63.7 | 61.6 | 28.4 | 138 | 197 | 69.1 | 44.7 | 97.1 | 132 |
| CO[C@H]1C[C@@H]2CC[C@@H](C)[C@@](O)(O2)C(=O)C(=O)N2CCCC[C@H]2C(=O)O[C@H]([C@H](C)C[C@@H]2CC[C@@H](OCCO)[C@H](OC)C2)CC(=O)[C@H](C)/C=C(\C)[C@@H](O)[C@@H](OC)C(=O)[C@H](C)C[C@H](C)/C=C/C=C/C=C/1C [everolimus] + C[C@@H]1CCN(C(=O)CC#N)C[C@@H]1N(C)c1ncnc2[nH]ccc12 [CP690550] (first compound 0.02 µM, partner dose 1 µM) | 749 | 46.7 | 122 | 726 | 104 | 117 | 105 | 75 | 103 | 68.6 | 223 | 54.2 | 66.5 | 87.8 | 109 | 107 | 164 | 70.3 | 86.2 |
| Cn1c(=O)n(-c2ccc(C(C)(C)C#N)cc2)c2c3cc(-c4cnc5ccccc5c4)ccc3ncc21 + CO[C@@H]1[C@H](N(C)C(=O)c2ccccc2)C[C@H]2O[C@]1(C)n1c3ccccc3c3c4c(c5c6ccccc6n2c5c31)C(=O)NC4 [Midostaurin] (first compound 0.004 µM, partner dose 0.08 µM) | 73 | 106 | 126 | 79.2 | 25.3 | 87.5 | 65.1 | 76.3 | 30.1 | 79.2 | 130 | 211 | 124 | 294 | 25.4 | 209 | 140 | 163 | 87.2 |
| C=C(c1ccc(C(=O)O)cc1)c1cc2c(cc1C)C(C)(C)CCC2(C)C [Bexarotene] + Cc1cc(N2CCOCC2)cc2[nH]c(-c3c(NC[C@@H](O)c4cccc(Cl)c4)cc[nH]c3=O)nc12 [BMS536924] (first compound 2 µM, partner dose 0.2 µM) | 90.6 | 41 | 11.3 | 39.2 | 82 | 183 | 148 | 118 | 91 | 95.5 | 92.5 | 119 | 146 | 131 | 99.3 | 37.2 | 100 | 99.8 | 77.6 |
| CN1CCN(c2ccc3nc(-c4c(N)c5c(F)cccc5[nH]c4=O)[nH]c3c2)CC1 [Dovitinib] + C[C@@H]1CCN(C(=O)CC#N)C[C@@H]1N(C)c1ncnc2[nH]ccc12 [CP690550] (first compound 0.1 µM, partner dose 1 µM) | 87.7 | 85.2 | 174 | 255 | 98.5 | 62.2 | 110 | 89.4 | 162 | 96.3 | 98.7 | 43.1 | 43.8 | 48.3 | 46.9 | 49 | 46.3 | 104 | 94.3 |
| CS(=O)(=O)CCNCc1ccc(-c2ccc3ncnc(Nc4ccc(OCc5cccc(F)c5)c(Cl)c4)c3c2)o1 [lapatinib] + NCC(=O)Nc1ccc(-n2nc(C(F)(F)F)cc2-c2ccc3c(ccc4ccccc43)c2)cc1 [OSU03012] (first compound 0.8 µM, partner dose 1 µM) | 215 | 154 | 149 | 1900 | 58.8 | 182 | 100 | 96.5 | 103 | 104 | 241 | 90.4 | 132 | 168 | 206 | 120 | 80.6 | 44.4 | 69.7 |
| CO[C@H]1C[C@@H]2CC[C@@H](C)[C@@](O)(O2)C(=O)C(=O)N2CCCC[C@H]2C(=O)O[C@H]([C@H](C)C[C@@H]2CC[C@@H](OCCO)[C@H](OC)C2)CC(=O)[C@H](C)/C=C(\C)[C@@H](O)[C@@H](OC)C(=O)[C@H](C)C[C@H](C)/C=C/C=C/C=C/1C [everolimus] + CC1(C)NC(=O)N(c2ccc([N+](=O)[O-])c(C(F)(F)F)c2)C1=O [nilutamide] (first compound 0.02 µM, partner dose 1 µM) | 273 | 100 | 75.8 | 277 | 105 | 561 | 69.6 | 92.2 | 162 | 119 | 150 | 174 | 108 | 72 | 29.8 | 153 | 127 | 78.6 | 129 |
| O=C(O)c1ccc2c(c1)nc(Nc1cccc(Cl)c1)c1ccncc12 + OCCn1cc(-c2cnc3nnn(Cc4ccc5ncccc5c4)c3n2)cn1 [PF04217903] (first compound 0.4 µM, partner dose 1 µM) | 82.8 | 92.1 | 101 | 258 | 92 | 203 | 119 | 106 | 117 | 122 | 101 | 74.8 | 147 | 253 | 198 | 218 | 166 | 109 | 148 |
| Cn1c(=O)n(-c2ccc(C(C)(C)C#N)cc2)c2c3cc(-c4cnc5ccccc5c4)ccc3ncc21 + CN(C)S(=O)(=O)c1ccc2c(c1)/C(=C/c1cc3c([nH]1)CCCC3)C(=O)N2 [SU6656] (first compound 0.004 µM, partner dose 0.4 µM) | 77.1 | 85.9 | 296 | 30.3 | 103 | 137 | 65.3 | 92.1 | 92.1 | 68 | 87.6 | 279 | 106 | 122 | 44.3 | 93.6 | 62.7 | 71.9 | 114 |
| O=C(O)[C@@H]1[O][Sb](=[O])([O][Sb]2(=[O])[O][C@H]([C@H](O)CO)[C@H](O)[C@H](C(=O)O)[O]2)[O][C@H]([C@H](O)CO)[C@@H]1O (some centres undefined) [stibogluconate] + COc1cc2c(Oc3ccc4[nH]c(C)cc4c3F)ncnc2cc1OCCCN1CCCC1 [cediranib] (first compound 2 µM, partner dose 0.4 µM) | 234 | 88.5 | 131 | 120 | 94.8 | 58 | 80.7 | 86.2 | 113 | 93.2 | 99.7 | 162 | 103 | 53.7 | 95.9 | 180 | 111 | 118 | 305 |
| CS(=O)(=O)CCNCc1ccc(-c2ccc3ncnc(Nc4ccc(OCc5cccc(F)c5)c(Cl)c4)c3c2)o1 [lapatinib] + Cc1ccc(NC(=O)c2cccc(N(C)C)c2)cc1NC(=O)c1ccc(O)cc1 [ZM336372] (first compound 0.8 µM, partner dose 2 µM) | 189 | 186 | 88 | 149 | 178 | 38.4 | 96.5 | 112 | 174 | 86.2 | 126 | 218 | 169 | 130 | 112 | 24.1 | 53.6 | 59 | 164 |
| O=C(O)[C@@H]1[O][Sb](=[O])([O][Sb]2(=[O])[O][C@H]([C@H](O)CO)[C@H](O)[C@H](C(=O)O)[O]2)[O][C@H]([C@H](O)CO)[C@@H]1O (some centres undefined) [stibogluconate] + NC(=O)Nc1cc(-c2cccc(F)c2)sc1C(=O)N[C@H]1CCCNC1 [AZD7762] (first compound 2 µM, partner dose 0.02 µM) | 87.5 | 85.5 | 138 | 482 | 117 | 62.8 | 83 | 95.3 | 70.6 | 150 | 49.2 | 37.5 | 61 | 47.4 | 85.4 | 122 | 62.7 | 14.7 | 65.9 |
| O=C(O)[C@@H]1[O][Sb](=[O])([O][Sb]2(=[O])[O][C@H]([C@H](O)CO)[C@H](O)[C@H](C(=O)O)[O]2)[O][C@H]([C@H](O)CO)[C@@H]1O (some centres undefined) [stibogluconate] + CO[C@@H]1[C@H](N(C)C(=O)c2ccccc2)C[C@H]2O[C@]1(C)n1c3ccccc3c3c4c(c5c6ccccc6n2c5c31)C(=O)NC4 [Midostaurin] (first compound 2 µM, partner dose 0.08 µM) | 90.3 | 167 | 86.3 | 104 | 185 | 219 | 141 | 90.7 | 126 | 92.7 | 116 | 58.6 | 140 | 109 | 143 | 201 | 95.5 | 247 | 38.9 |

Reformatted with bars between the fields: part of the list above.
Structure (SMILES) | cleaved PARP positive nuclei fraction (501Mel) [%] | cleaved PARP positive nuclei fraction (A101D) [%] | cleaved PARP positive nuclei fraction (A2058) [%] | cleaved PARP positive nuclei fraction (A375) [%] | cleaved PARP positive nuclei fraction (C32) [%] | cleaved PARP positive nuclei fraction (CBRC008) [%] | cleaved PARP positive nuclei fraction (CBRC013) [%] | cleaved PARP positive nuclei fraction (CBRC014) [%] | cleaved PARP positive nuclei fraction (CBRC016) [%] | cleaved PARP positive nuclei fraction (CBRC017) [%] | cleaved PARP positive nuclei fraction (COLO792) [%] | cleaved PARP positive nuclei fraction (COLO800) [%] | cleaved PARP positive nuclei fraction (COLO829) [%] | cleaved PARP positive nuclei fraction (G361) [%] | cleaved PARP positive nuclei fraction (IPC-298) [%] | cleaved PARP positive nuclei fraction (IST-MEL1) [%] | cleaved PARP positive nuclei fraction (LB2518-MEL) [%] | cleaved PARP positive nuclei fraction (LOXIMVI) [%] | cleaved PARP positive nuclei fraction (MEL-HO) [%]
CC(C)C[C@H](NC(=O)[C@H](Cc1ccccc1)NC(=O)c1cnccn1)B(O)O [Bortezomib] + CN(C)S(=O)(=O)c1ccc2c(c1)/C(=C/c1cc3c([nH]1)CCCC3)C(=O)N2 [SU6656] (first compound 0.001 µM, partner dose 0.4 µM) | 169 | 229 | 115 | 31.5 | 148 | 535 | 97.7 | 157 | 366 | 226 | 48.2 | 105 | 220 | 2620 | 53.2 | 163 | 94.3 | 108 | 63.3
CN1CCN(c2ccc3nc(-c4c(N)c5c(F)cccc5[nH]c4=O)[nH]c3c2)CC1 [Dovitinib] + C[C@@H]1CCN(C(=O)CC#N)C[C@@H]1N(C)c1ncnc2[nH]ccc12 [CP690550] (first compound 0.1 µM, partner dose 1 µM) | 87.7 | 85.2 | 174 | 255 | 98.5 | 62.2 | 110 | 89.4 | 162 | 96.3 | 98.7 | 43.1 | 43.8 | 48.3 | 46.9 | 49 | 46.3 | 104 | 94.3
